PubChem BioAssay AID1053208 | Peter MacCallum Cancer Centre, 2014
Test: 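Genes whose silencing cuts survival of bone tumour cells only with doxorubicin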 (primary screen). Cell system: mouse osteosarcoma cells, early-passage culture from an engineered mouse model of fibroblastic bone tumour. Reagents: siRNA pool against mouse genes, 40 nM. Timing: about 120 h (48 h before drug, then 72 h with drug). Conditions: doxorubicin 100 nM for 72 h, roughly 30-40% inhibitory dose. Read-out: 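Luminescent ATP signal taken as viability with or without 100 nM doxorubicin for 72 h; mean of two wells set against non-targeting siRNA and turned into robust z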. Scale: viability z-score with doxorubicin and doxorubicin viability vs non-targeting: higher = more viable cells under doxorubicin; viability z-score without drug: higher = more viable cells with knock-down alone; z-score of drug to no-drug ratio: higher = less drug sensitisation by knock-down. Call rule: 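a pool counts as active when its viability z-score with doxorubicin is -2 or below and its z-score without drug lies between -2 and 2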.
Shown is one part, drawn at random, of about 17,000 reagents. Over the whole deposit, 788 (4.7%) are marked active. 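Calls rest on z-score classes alone; an extra cut-off of viability at most 70% of control was not applied to them.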 Reagent sequences are not shown.

no.	gene	combined z-score class	viability z-score with doxorubicin	viability z-score without drug	z-score of drug to no-drug ratio	doxorubicin viability vs non-targeting	activity call
1	Ryk (GeneID 20187)	no change with or without drug	0.34	-0.17	0.56	0.97	inactive
2	Vmn1r22 (GeneID 171196)	no change with or without drug	0.22	0	0.34	0.96	inactive
3	Slc3a2 (GeneID 17254)	no change with or without drug	-0.9	-0.67	-0.34	0.86	inactive
4	Naa15 (GeneID 74838)	no change with or without drug	1.24	-0.84	2.14	1.05	inactive
5	Il17b (GeneID 56069)	no change with or without drug	0.45	0.17	0.45	0.98	inactive
6	Trpt1 (GeneID 107328)	no change with or without drug	1.12	1.01	0.56	1.04	inactive
7	Ccdc59 (GeneID 52713)	no change with or without drug	-0.79	-1.18	0.11	0.87	inactive
8	Or51l14 (GeneID 259098)	no change with or without drug	0.67	0.84	0.22	1	inactive
9	Hmgn3 (GeneID 94353)	no change with or without drug	-0.56	-1.18	0.34	0.89	inactive
10	Tbcc (GeneID 72726)	no change with or without drug	-0.45	0.51	-0.67	0.9	inactive
11	Dbr1 (GeneID 83703)	no change with or without drug	0.22	0.17	0.22	0.96	inactive
12	Olfr257 (GeneID 404314)	no change with or without drug	-0.11	1.18	-0.79	0.93	inactive
13	9930022D16Rik (GeneID 320509)	no change with or without drug	0.11	0.17	0.11	0.95	inactive
14	Zfp64 (GeneID 22722)	no change with or without drug	-0.45	1.35	-1.24	0.9	inactive
15	Grm2 (GeneID 108068)	no change with or without drug	1.35	0.84	0.9	1.06	inactive
16	She (GeneID 214547)	no change with or without drug	-0.79	0.17	-0.79	0.87	inactive
17	Or10ag56 (GeneID 404328)	high cell count with and without drug	3.15	2.36	1.57	1.22	inactive
18	Casr (GeneID 12374)	high cell count with doxorubicin only	2.25	1.69	1.24	1.14	inactive
19	Chfr (GeneID 231600)	low cell count with doxorubicin only	-2.02	-1.52	-1.12	0.76	active
20	H2ac1 (GeneID 319163)	no change with or without drug	-0.45	0	-0.34	0.9	inactive
21	Mrpl37 (GeneID 56280)	no change with or without drug	1.69	0.84	1.24	1.09	inactive
22	Defa6 (GeneID 13240)	no change with or without drug	0	0.67	-0.34	0.94	inactive
23	Ttc16 (GeneID 338348)	no change with or without drug	-0.22	0.17	-0.22	0.92	inactive
24	Hdac2 (GeneID 15182)	no change with or without drug	-1.46	1.52	-2.25	0.81	inactive
25	Nf2 (GeneID 18016)	no change with or without drug	1.35	1.85	0.22	1.06	inactive
26	Morc2b (GeneID 240069)	no change with or without drug	-0.9	-0.84	-0.22	0.86	inactive
27	St3gal2 (GeneID 20444)	no change with or without drug	-0.34	-0.51	0.11	0.91	inactive
28	Adgrg1 (GeneID 14766)	no change with or without drug	-1.35	-0.34	-1.12	0.82	inactive
29	Gm15850 (GeneID 329253)	no change with or without drug	-0.34	-1.01	0.45	0.91	inactive
30	Snu13 (GeneID 20826)	low cell count with doxorubicin only	-2.36	-1.52	-1.46	0.73	active
31	Pik3ip1 (GeneID 216505)	no change with or without drug	1.01	-0.17	1.35	1.03	inactive
32	Pax9 (GeneID 18511)	no change with or without drug	0.9	0.17	0.9	1.02	inactive
33	Gvin1 (GeneID 74558)	no change with or without drug	-0.9	-0.51	-0.56	0.86	inactive
34	Ifitm10 (GeneID 320802)	no change with or without drug	1.46	1.85	0.34	1.07	inactive

Targets above whose gene name begins with M or m:
gene	combined z-score class	viability z-score with doxorubicin	viability z-score without drug	z-score of drug to no-drug ratio	doxorubicin viability vs non-targeting	activity call
Mrpl37 (GeneID 56280)	no change with or without drug	1.69	0.84	1.24	1.09	inactive
Morc2b (GeneID 240069)	no change with or without drug	-0.9	-0.84	-0.22	0.86	inactive
